# Results are given in words; binding and its absence hold for the method and conditions named. In cells and extracts the contact can be indirect. A yes stands for co-enrichment or nearness to the bait. Other partners may have been found.
# Chains of the proteins cited; added tags and fusions are not shown.
# UniProt P62993: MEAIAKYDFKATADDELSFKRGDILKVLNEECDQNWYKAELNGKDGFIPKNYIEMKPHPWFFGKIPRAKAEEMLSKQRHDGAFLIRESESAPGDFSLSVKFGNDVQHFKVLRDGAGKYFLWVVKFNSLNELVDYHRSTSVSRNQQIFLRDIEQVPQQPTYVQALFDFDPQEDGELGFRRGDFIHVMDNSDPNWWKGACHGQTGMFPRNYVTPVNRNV
# UniProt P29350: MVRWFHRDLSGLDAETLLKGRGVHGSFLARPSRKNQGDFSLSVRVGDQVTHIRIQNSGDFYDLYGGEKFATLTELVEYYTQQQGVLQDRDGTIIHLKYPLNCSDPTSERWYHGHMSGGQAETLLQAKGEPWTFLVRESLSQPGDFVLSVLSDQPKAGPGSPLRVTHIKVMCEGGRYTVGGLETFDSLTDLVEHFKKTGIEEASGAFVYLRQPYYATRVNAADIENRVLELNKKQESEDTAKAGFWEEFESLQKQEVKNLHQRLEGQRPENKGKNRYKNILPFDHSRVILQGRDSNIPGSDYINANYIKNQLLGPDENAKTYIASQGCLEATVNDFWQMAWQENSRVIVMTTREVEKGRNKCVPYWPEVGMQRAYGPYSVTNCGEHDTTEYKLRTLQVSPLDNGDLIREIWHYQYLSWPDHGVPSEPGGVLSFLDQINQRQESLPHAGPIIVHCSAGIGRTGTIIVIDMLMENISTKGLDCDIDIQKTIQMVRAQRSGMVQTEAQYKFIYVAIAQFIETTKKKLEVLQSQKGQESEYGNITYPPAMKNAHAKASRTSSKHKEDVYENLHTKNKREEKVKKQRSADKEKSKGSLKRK
# UniProt P41240: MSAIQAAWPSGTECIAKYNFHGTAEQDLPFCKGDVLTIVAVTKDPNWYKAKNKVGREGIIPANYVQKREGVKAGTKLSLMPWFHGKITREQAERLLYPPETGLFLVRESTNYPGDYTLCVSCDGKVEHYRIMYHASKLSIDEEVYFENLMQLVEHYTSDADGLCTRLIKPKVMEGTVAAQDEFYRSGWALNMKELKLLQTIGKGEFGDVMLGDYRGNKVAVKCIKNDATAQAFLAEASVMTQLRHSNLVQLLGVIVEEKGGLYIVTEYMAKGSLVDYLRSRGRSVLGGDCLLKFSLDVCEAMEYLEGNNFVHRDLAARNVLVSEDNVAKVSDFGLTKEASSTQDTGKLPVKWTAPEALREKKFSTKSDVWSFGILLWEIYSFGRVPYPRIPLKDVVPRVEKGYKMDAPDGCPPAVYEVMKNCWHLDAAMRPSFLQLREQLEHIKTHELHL
# Target: T1, CD244 ITSM1 phosphopeptide (Biotin-EFLTIpYEDVKD) (human)
# T1 sequence (peptide, phosphotyrosine (pY, position 6 of the peptide); biotin on the N-terminus): EFLTIYEDVKD
# Test: affinity purification with mass spectrometry; streptavidin Sepharose coated with saturating biotinylated phosphopeptide or EAT-2; lysate of NK92 cells treated with 500 μM pervanadate (PBS, 1% Triton X-100, 1 mM orthovanadate); 2 hours at 4°C; eluted with glycine-HCl pH 2.5; LC-MS/MS; compared with a control bait (SHIP-1 Y865 phosphopeptide or EAT-2); only the target purified
row,binding,Substance
1,binds,"Growth factor receptor-bound protein 2 (GRB2) (endogenous, NK92 cells) (from UniProt P62993 1-217)"
2,binds,"SHP-1 (endogenous, NK92 cells) (from UniProt P29350 1-595) (enzyme)"
3,binds,"SHP-2 (endogenous, NK92 cells) (from UniProt Q06124 1-593) (enzyme)"
4,binds,"c-Src Tyrosine Kinase (CSK) (endogenous, NK92 cells) (from UniProt P41240 1-450) (enzyme)"

# Reference: PMC3958483, “Fine Specificity and Molecular Competition in SLAM Family Receptor Signalling” (PLoS ONE, 2014)
